# Measurements: patent US20250296971A1 (priority 2021, published 2025)
# What was measured:
# [1] = general procedure: Fmoc solid-phase peptide synthesis; polystyrene (PS, DEG), ChemMatrix (CM) or TentaGel (TG) resin; linkers trityl, wang and rink amide; conditions: for isolated mass / isolated yield: whole synthesis; for conjugation yield: conjugation step; for step yield: late stage modification step
# [2] = general procedure: Fmoc solid-phase peptide synthesis; Rink amide; conditions: whole synthesis
# [3] = general procedure: Fmoc solid-phase peptide synthesis; 1,2-diaminoethane trityl resin; conditions: whole synthesis, scale 50 μmol
# [4] = general procedure: Fmoc solid-phase peptide synthesis; Cysteamine-4-methoxytrityl resin; conditions: whole synthesis
# [5] = general procedure: Fmoc solid-phase peptide synthesis; Rink amide resin; conditions: whole synthesis
# [6] = general procedure: Fmoc solid-phase peptide synthesis; trityl resin; conditions: whole synthesis, scale 100 μmol
# [7] = general procedure: Fmoc solid-phase peptide synthesis; Trityl resin; conditions: whole synthesis, scale 50 umol, thioether ring
# [8] = overall, scale of the general procedure 50 μmol and 100 μmol
# [9] = scale 50 umol, one disulfide bridge
substance,measurement,setting,value
AGLU-Glutar-Asp-Trp-5Clw-Tap-Glu-leu-[Cys(2Lut)-Apc(DOTAM)-Leu-Ile-Cys]-APAc-glu(AGLU)-NH2,isolated mass,[1]; scale 50 μmol,12.3 mg
same,isolated yield,[1]; scale 50 μmol,9.3%
AGLU-Glutar-APAc-Asp-Trp-5Clw-Hyp-Glu-leu-[Cys(2Lut)-Apc(DOTA)-Leu-Ile-Cys]-lys(MeO36PEG)-NH2,isolated mass,[2]; scale 50 umol,11.86 mg
same,isolated yield,[2]; scale 50 umol,5.7%
DOTA(OtBu)3-Ttds-Asp(OtBu)-Trp(Boc)-5Clw-Pro-Glu(OtBu)-leu-Cys(Mmt)-Aib-Leu-Ile-en-H,isolated mass,[3],11.6 mg
same,isolated yield,[3],10.8%
Ac-Asp-Trp-5Clw-Nglu(AGLU)-Glu-leu-[Cys(2Lut)-Thp-Leu-Ile-Cys]-NH2,isolated mass,"[2]; scale 100 umol, thioether ring",30.9 mg
same,isolated yield,"[2]; scale 100 umol, thioether ring",17.4%
AGLU-Glutar-Asp-Trp-5Clw-Hyp-Glu-leu-[Cys(2Lut)-Apc-Leu-Ile-Cys]-APAc-glu(AGLU)-NH2,isolated mass,[2]; scale 100 umol,31.04 mg
same,isolated yield,[2]; scale 100 umol,13.7%
HO-Succinyl-Trp-5Clw-Hyp-Glu-leu-[Cys(2Lut)-Apc-Leu-Ile-AET],isolated mass,[4]; scale 100 umol,83.96 mg
same,isolated yield,[4]; scale 100 umol,56.0%
Ac-Asp-Trp-5Clw-Hyp-Glu-leu-[Cys(tMeBn(DOTA-AET))-Thp-Leu-Ile-Cys]-NH2,conjugation yield,"[1]; yield for coupling of DOTA, thioether ring",68.1%
same,isolated yield,"[1]; overall, scale of the general procedure 50 μmol and 100 μmol, thioether ring",16.7%
AGLU-Glutar-Asp-Trp-5Clw-N3Tap-Glu-leu-[Cys(2Lut)-Apc-Leu-Ile-Cys]-APAc-glu(AGLU)-NH2,isolated mass,[2]; scale 100 umol,30.94 mg
same,isolated yield,[2]; scale 100 umol,13.5%
DOTA-APAc-Asp-Trp-5Clw-Hyp-Glu-leu-[Dap(2Lut)-Thp-Leu-Ile-AET],isolated mass,"[4]; scale 100 umol, cyclic",10.58 mg
same,isolated yield,"[4]; scale 100 umol, cyclic",5.2%
AGLU-Glutar-Asp-Trp-5Clw-Tap-Glu-leu-[Cys(2Lut)-Apc(DOTA)-Leu-Ile-Cys]-APAc-glu(AGLU)-NH2,step yield,[1],63.6%
tBuO-Succinyl-Trp-5Clw-Hyp-Glu-leu-Cys-Apc-Leu-Ile-Cys-APAc-Lys(Alloc)-NH2,isolated mass,[5]; scale 50 μmol,30.8 mg
same,isolated yield,[5]; scale 50 μmol,28.1%
H-Asp-Trp-5Clw-N3Tap-Glu-leu-Cys-Apc-Leu-Ile-Cys-APAc-glu(OAll)-Serol,isolated mass,[6],15.72 mg
same,isolated yield,[6],6.8%
AGLU-Glutar-Asp-Trp-5Clw-N3Tap-Glu-leu-Cys-Apc-Leu-Ile-Cys-APAc-glu(AGLU)-NH2,isolated mass,[5]; scale 50 μmol,29.95 mg
same,isolated yield,[5]; scale 50 μmol,26.10%
DOTA-glu(AGLU)-APAc-Asp-Trp-5Clw-Hyp-Glu-leu-[Cys(2Lut)-Thp-Leu-Ile-Cys]-APAc-glu(AGLU)-NH2,step yield,[1]; thioether ring,77.1%
Ac-Tyr-Asp-Trp-Trp-Pro-Glu-Leu-[Cys(3MeBn)-Ala-Leu-Ile-Cys]-Ttds-Lys(DOTA)-NH2,isolated mass,"[2]; scale 50 umol, thioether ring",10.37 mg
same,isolated yield,"[2]; scale 50 umol, thioether ring",8.4%
Ac-Asp-Trp-5Clw-Hyp-Glu-leu-[Cys(2Lut)-Thp-Leu-Ile-Cys]-OH,isolated mass,[7],34.09 mg
same,isolated yield,[7],42.6%
HO-Succinyl-Trp-5Clw-Hyp-Glu-leu-[Cys(2Lut)-Apc(MeO10kDaPEGAc)-Leu-Ile-Cys]-APAc-Lys(DOTA)-NH2,conjugation yield,[1],12.7%
NTASEROL-Asp-Trp-5Clw-Tap-Glu-leu-[Cys(2Lut)-Apc(DOTA)-Leu-Ile-Cys]-APAc-GLUSEROL,isolated mass,[1]; scale 100 μmol,8.62 mg
same,isolated yield,[1]; scale 100 μmol,3.2%
AGLU-Glutar-Asp-Trp-5Clw-Tap-Glu-leu-[Cys(2Lut)-Apc(NOPO)-Leu-Ile-Cys]-APAc-glu(AGLU)-NH2,isolated mass,[2]; scale 20 umol,12.63 mg
same,isolated yield,[2]; scale 20 umol,23.0%
AGLU-Glutar-Asp-Trp-5Clw-Tap-Glu-leu-[Cys(2Lut)-Apc(NODAGA-Gly)-Leu-Ile-Cys]-APAc-glu(AGLU)-NH2,isolated mass,[2]; scale 50 umol,11.5 mg
same,isolated yield,[2]; scale 50 umol,8.6%
Ac-Asp-Trp-5Clw-Hyp-Glu-leu-[Cys(mli)-Thp-Leu-Ile-Hcy]-NH2,isolated mass,"[2]; scale 50 umol, thioether ring",11.16 mg
same,isolated yield,"[2]; scale 50 umol, thioether ring",13.9%
4OHPhp-Asp-Trp-Trp-Pro-Glu-leu-[Cys(3MeBn)-Aib-Leu-Ile-Cys]-Ttds-Lys(DOTA)-NH2,isolated mass,"[2]; scale 50 umol, thioether ring",14.21 mg
same,isolated yield,"[2]; scale 50 umol, thioether ring",11.7%
AGLU-Glutar-Asp-Trp-5Clw-Tap-Glu-leu-[Cys(2Lut)-Apc(NODAGA)-Leu-Ile-Cys]-APAc-glu(AGLU)-NH2,step yield,[1],75.10%
AGLU-Glutar-Asp-Trp-5Clw-Hyp-Glu-leu-[Cys(2Lut)-Thp-Leu-Ile-Cys]-APAc-glu(AGLU)-Lys(DOTA)-NH2,isolated mass,"[2]; scale 50 umol, thioether ring",10.29 mg
same,isolated yield,"[2]; scale 50 umol, thioether ring",7.4%
HO-Succinyl-Trp-5Clw-Hyp-Glu-leu-[Cys(2Lut)-Apc(AGLU-Glutar)-Leu-Ile-Cys]-APAc-Lys(DOTA)-NH2,isolated mass,[2]; scale 50 umol,14.15 mg
same,isolated yield,[2]; scale 50 umol,11.4%
DOTA-Ttds-Tyr-Asp-Trp-Trp-Pro-Glu-Leu-[Cys(3MeBn)-Ala-Leu-Ile-Cys]-NH2,isolated mass,"[2]; scale 50 umol, thioether ring",16.11 mg
same,isolated yield,"[2]; scale 50 umol, thioether ring",14.0%
Ac-Asp-Trp-5Clw-Hyp-Glu-leu-[Cys(tMeBn(H-AET))-Thp-Leu-Ile-Cys]-NH2,isolated mass,[2]; scale 100 umol,41.15 mg
same,isolated yield,[2]; scale 100 umol,24.6%
AGLU-Glutar-APAc-Asp-Trp-5Clw-Tap(AGLU-Glutar)-Glu-leu-[Cys(2Lut)-Apc(DOTA-glu(AGLU))-Leu-Ile-Cys]-APAc-glu(AGLU)-NH2,isolated mass,[2]; scale 100 umol,4.16 mg
same,isolated yield,[2]; scale 100 umol,1.2%
HO-Succinyl-Trp-5Clw-Hyp-Glu-leu-[Cys(2Lut)-Apc(DOTA)-Leu-Ile-AET],conjugation yield,[1]; yield for coupling of DOTA,57.2%
same,isolated yield,[1]; [8],32.0%
H-Met-Tyr-Asp-Trp-Trp-Pro-Glu-Leu-[Cys(3MeBn)-Ala-Leu-Ile-Cys]-Ttds-Lys(Bio)-NH2,isolated mass,"[2]; scale 100 umol, thioether ring",9.38 mg
same,isolated yield,"[2]; scale 100 umol, thioether ring",15.0%
AGLU-Glutar-Asp-Trp-5Clw-Tap-Glu-leu-[Cys(2Lut)-Apc(DOTA)-Leu-Ile-Cys]-APAc-glu(AGLU)-NH2 [GIP-001],isolated mass,"[2]; scale 50 umol, run 1",6.8 mg
same,isolated yield,"[2]; scale 50 umol, run 1",5.1%
same,isolated mass,"[2]; scale 50 umol, run 2",1.36 mg
same,isolated yield,"[2]; scale 50 umol, run 2",1.0%
same,isolated mass,[2]; scale 100 umol,43.62 mg
same,isolated yield,[2]; scale 100 umol,16.5%
same,conjugation yield,[1]; yield for coupling of DOTA,49.5%
same,isolated yield,[1]; [8],6.7%
Ac-Asp-Trp-5Clw-Hyp-Glu-leu-[Hey-Thp-Leu-Ile-Hcy]-NH2,isolated mass,[2]; [9],14.19 mg
same,isolated yield,[2]; [9],18.6%
NTASEROL-Asp-Trp-5Clw-Tap-Glu-leu-[Cys(2Lut)-Apc(DOTA)-Leu-Ile-Cys]-APAc-dap(NTASEROL)-NH2,isolated mass,[5]; scale 100 μmol,5.52 mg
same,isolated yield,[5]; scale 100 μmol,2.0%
HO-Succinyl-Trp-1Ni-Pro-Glu-Leu-[Cys(3MeBn)-Aib-Leu-Ile-Cys]-Ttds-Lys(DOTA)-NH2,isolated mass,"[2]; scale 50 umol, thioether ring",15.17 mg
same,isolated yield,"[2]; scale 50 umol, thioether ring",13.30%
DOTA-Ttds-Asp-Trp-Trp-Pro-Glu-leu-[Cys(3MeBn)-Aib-Leu-Ile-AET],isolated mass,"[4]; scale 50 umol, thioether ring",43.69 mg
same,isolated yield,"[4]; scale 50 umol, thioether ring",41.4%
